Test results from patent publication US20230037864A1.
Results are given in words; binding and its absence hold for the method and conditions named. Binding seen in cells or lysates may run through a third protein. A result given as binding can be weak or reduced; the word gives no strength.

Target: ectodomain of the S protein of PEDV (GeneBank no. HC070225-S) (porcine epidemic diarrhea virus (PEDV))
Assay: pull-down (100 kDa MWCO spin column, SDS-PAGE) and SEC co-elution with anti-V5 western blotting

B1: recombinant scFv (scFv)
scFv: NIVLTQSPKSMSMSVGERVTLSCKASENVGTYVSWYQQKPKQSPKLLIYGTFNRYTGVPDRFTGSGSATDFTLTISSVQAEDLADYHCGQSYNYPFTFGSGTKLEIKGGGGSGGGGSGGGGSQVQLQQSGAELARPGTSVKMSCKASGYTFTNYMMHWIKQRPGQGLEWIGYINPSTGYTNYNQKFKDKATLTADKSSSTAYVQLNILTSEDSAVYYCATSTLITGDYWGQGTTLTVSSKGQDNSAG
In the case of B1, the binding is reported as “binds”.
